Consider five substances from patent US8076294B2 (Advanced Technologies and Regenerative Medicine, LLC., priority 2007, dated 2011).

The nature of data set [1]: general procedure: Fmoc solid-phase peptide synthesis; Fmoc-Phe-Wang resin (0.74 mmol/g); HBTU/HOBT, DIEA. As to conditions: whole synthesis, overall, scale 0.1 mmol.
The nature of data set [2]: general procedure: Fmoc solid-phase peptide synthesis; Fmoc-Phe-Wang resin (0.74 mmol/g, 100-200 mesh); Fmoc-Gly-Wang resin (0.7 mmol/g, 100-200 mesh); HBTU/HOBT, DIEA. As to conditions: whole synthesis, scale of the general procedure 0.1 mmol.
Data set [3] in a line: general procedure: Fmoc solid-phase peptide synthesis; Fmoc-Gly-Wang (0.7 mmol/g); HBTU/HOBT, DIEA. To be noted: whole synthesis, overall, scale 0.1 mmol.

On to (F5)-Phe-(Gly-Pro-Hyp)10-Phe, for which the isolated yield was 32% in data set [1] and 31% in data set [2]. On to Ac-(Gly-Pro-Hyp)10-Gly, for which, in data set [3], the isolated yield stood at 34%. For Gly-(Gly-Pro-Hyp)10-Gly, the isolated yield in data set [2] stood at 32%. The same measure, in the same setting: under Leu-(Gly-Pro-Hyp)10-Phe stands 35%. In data set [2], Phe-(Gly-Pro-Hyp)10-Phe registered an isolated yield of 26%.
